In publication PMC9684564 one finds binding data, which are given here for four molecules.

The chains behind the UniProt entries cited, without tags or fusion partners.
UniProt Q14974: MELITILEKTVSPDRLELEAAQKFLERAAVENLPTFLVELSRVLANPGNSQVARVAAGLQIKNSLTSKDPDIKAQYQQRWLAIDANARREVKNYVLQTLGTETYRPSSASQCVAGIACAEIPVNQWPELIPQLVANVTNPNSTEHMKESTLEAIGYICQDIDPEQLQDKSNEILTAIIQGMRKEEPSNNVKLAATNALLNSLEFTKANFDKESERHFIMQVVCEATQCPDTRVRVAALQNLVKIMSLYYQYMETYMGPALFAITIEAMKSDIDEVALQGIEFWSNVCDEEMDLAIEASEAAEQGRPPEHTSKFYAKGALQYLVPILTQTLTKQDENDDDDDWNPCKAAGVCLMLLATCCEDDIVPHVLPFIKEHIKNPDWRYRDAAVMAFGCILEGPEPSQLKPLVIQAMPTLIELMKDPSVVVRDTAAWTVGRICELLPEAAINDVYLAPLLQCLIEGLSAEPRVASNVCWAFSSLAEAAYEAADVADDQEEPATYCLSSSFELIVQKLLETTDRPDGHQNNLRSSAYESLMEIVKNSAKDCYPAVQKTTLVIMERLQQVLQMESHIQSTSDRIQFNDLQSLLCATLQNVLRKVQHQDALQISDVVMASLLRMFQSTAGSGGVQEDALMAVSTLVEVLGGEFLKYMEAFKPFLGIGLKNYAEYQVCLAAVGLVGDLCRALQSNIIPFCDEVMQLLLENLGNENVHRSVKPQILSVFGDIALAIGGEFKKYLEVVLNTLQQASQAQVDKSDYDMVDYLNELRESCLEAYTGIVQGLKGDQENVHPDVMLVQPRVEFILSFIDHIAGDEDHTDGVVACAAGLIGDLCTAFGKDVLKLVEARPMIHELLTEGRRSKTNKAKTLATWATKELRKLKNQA
UniProt O14980: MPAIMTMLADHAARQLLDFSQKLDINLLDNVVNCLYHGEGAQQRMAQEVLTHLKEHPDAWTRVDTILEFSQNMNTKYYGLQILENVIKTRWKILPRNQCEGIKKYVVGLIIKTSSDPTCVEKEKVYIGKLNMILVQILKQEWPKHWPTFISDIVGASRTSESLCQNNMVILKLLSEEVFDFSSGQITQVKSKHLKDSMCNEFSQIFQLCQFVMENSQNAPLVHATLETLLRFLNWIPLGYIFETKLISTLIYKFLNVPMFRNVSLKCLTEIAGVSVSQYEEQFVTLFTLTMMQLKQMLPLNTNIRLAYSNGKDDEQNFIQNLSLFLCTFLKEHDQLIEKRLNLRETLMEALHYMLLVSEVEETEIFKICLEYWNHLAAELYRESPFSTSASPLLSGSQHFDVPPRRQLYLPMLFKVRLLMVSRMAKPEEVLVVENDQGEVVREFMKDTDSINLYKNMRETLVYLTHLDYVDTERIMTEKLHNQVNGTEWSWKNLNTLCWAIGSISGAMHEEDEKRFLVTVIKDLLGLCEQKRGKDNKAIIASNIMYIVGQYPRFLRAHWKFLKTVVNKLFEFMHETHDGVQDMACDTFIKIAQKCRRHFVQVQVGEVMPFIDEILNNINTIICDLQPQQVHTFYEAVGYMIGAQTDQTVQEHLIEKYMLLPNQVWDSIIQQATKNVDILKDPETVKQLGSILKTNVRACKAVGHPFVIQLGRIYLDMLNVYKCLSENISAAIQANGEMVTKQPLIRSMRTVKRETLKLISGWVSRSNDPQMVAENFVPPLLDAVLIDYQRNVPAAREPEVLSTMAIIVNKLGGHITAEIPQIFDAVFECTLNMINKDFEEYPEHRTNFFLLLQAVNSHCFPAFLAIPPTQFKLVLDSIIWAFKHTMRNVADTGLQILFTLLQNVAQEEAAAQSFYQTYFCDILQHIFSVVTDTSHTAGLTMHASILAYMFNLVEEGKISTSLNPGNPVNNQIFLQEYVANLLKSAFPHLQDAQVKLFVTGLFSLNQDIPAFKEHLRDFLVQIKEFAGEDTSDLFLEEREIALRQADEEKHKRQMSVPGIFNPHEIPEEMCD
UniProt Q96AE4: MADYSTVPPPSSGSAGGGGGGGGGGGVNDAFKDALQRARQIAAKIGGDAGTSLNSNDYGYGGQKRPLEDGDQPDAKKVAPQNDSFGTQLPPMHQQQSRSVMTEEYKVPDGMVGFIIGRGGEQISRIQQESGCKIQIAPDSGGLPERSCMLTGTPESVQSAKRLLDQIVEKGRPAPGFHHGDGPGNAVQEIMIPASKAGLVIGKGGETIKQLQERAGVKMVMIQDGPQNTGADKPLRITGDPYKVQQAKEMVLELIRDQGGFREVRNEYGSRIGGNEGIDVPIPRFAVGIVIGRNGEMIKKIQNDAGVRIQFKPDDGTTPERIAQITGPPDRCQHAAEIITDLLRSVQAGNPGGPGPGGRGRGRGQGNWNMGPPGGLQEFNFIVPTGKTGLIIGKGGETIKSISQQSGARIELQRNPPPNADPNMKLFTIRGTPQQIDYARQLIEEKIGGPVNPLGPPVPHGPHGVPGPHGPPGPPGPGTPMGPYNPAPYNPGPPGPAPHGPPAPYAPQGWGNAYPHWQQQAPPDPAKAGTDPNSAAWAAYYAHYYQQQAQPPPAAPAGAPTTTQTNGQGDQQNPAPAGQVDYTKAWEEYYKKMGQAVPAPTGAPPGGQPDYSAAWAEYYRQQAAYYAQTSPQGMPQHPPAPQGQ
UniProt P04406: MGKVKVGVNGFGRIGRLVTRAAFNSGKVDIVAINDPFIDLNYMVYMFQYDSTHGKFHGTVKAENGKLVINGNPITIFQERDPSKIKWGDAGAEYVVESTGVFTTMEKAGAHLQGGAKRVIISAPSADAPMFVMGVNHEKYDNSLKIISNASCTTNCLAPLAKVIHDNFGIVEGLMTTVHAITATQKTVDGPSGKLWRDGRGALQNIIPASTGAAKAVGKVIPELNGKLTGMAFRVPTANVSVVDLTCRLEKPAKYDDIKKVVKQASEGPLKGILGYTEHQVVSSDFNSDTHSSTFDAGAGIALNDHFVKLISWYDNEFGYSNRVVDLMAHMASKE

For assay [1], the target named is Karyopherin beta 1 (human (endogenous in hTERT-RPE1, HeLa, WHCO5, KYSE30)) (UniProt Q14974). The experiment in a line: co-IP; endogenous Kpnβ1 precipitated with anti-Karyopherin β1 (H-7) agarose-conjugated antibody from lysates of hTERT-RPE-1, HeLa, WHCO5 and KYSE30 cells; Western blot of the whole immunoprecipitate; IgG isotype control with protein A agarose beads.

For assay [2] the target is unchanged. The experiment in a line: co-IP; as a2, lysate of KYSE30 cells only (CCAR1 blot).
The target is the same in assay [3]. The experiment in a line: condition: only in lysates of hTERT-RPE-1 and WHCO5 cells; co-IP; as a2, lysates of hTERT-RPE-1 and WHCO5 cells only (CCAR1 blot).
Assay [4] has the same target. The experiment in a line: co-IP; endogenous Kpnβ1 precipitated with anti-Karyopherin β1 (H-7) agarose-conjugated antibody from lysates of hTERT-RPE-1, HeLa, WHCO5 and KYSE30 cells; Western blot of the whole immunoprecipitate; IgG isotype control with protein A agarose beads. This is another data set of the same source. (Immunoblotting shows a protein as a band on a membrane.)

No constants are given. Whether binding was seen depends on the method and setting. In cells and extracts the contact can be indirect. Some entries that bind do so weakly or less than the wild type.

As for CRM1 (from UniProt O14980 1-1071), the binding result in assay [1] was “binds”.
Same read-out and setting: next, “Far upstream element-binding protein 1 (from UniProt Q96AE4 1-644)”: “binds”.
Consider GAPDH (from UniProt P04406 1-335), for which, in assay [1], the binding result is recorded as “no binding”.

B1: Cell division cycle and apoptosis regulator protein 1 (protein, UniProt Q8IX12 1-1150)
chain: MAQFGGQKNPPWATQFTATAVSQPAALGVQQPSLLGASPTIYTQQTALAAAGLTTQTPANYQLTQTAALQQQAAAAAAALQQQYSQPQQALYSVQQQLQQPQQTLLTQPAVALPTSLSLSTPQPTAQITVSYPTPRSSQQQTQPQKQRVFTGVVTKLHDTFGFVDEDVFFQLSAVKGKTPQVGDRVLVEATYNPNMPFKWNAQRIQTLPNQNQSQTQPLLKTPPAVLQPIAPQTTFGVQTQPQPQSLLQAQISAASITPLLQTQPQPLLQQPQQKAGLLQPPVRIVSQPQPARRLDPPSRFSGRNDRGDQVPNRKDDRSRERERERRRSRERSPQRKRSRERSPRRERERSPRRVRRVVPRYTVQFSKFSLDCPSCDMMELRRRYQNLYIPSDFFDAQFTWVDAFPLSRPFQLGNYCNFYVMHREVESLEKNMAILDPPDADHLYSAKVMLMASPSMEDLYHKSCALAEDPQELRDGFQHPARLVKFLVGMKGKDEAMAIGGHWSPSLDGPDPEKDPSVLIKTAIRCCKALTGIDLSVCTQWYRFAEIRYHRPEETHKGRTVPAHVETVVLFFPDVWHCLPTRSEWETLSRGYKQQLVEKLQGERKEADGEQDEEEKDDGEAKEISTPTHWSKLDPKTMKVNDLRKELESRALSSKGLKSQLIARLTKQLKVEEQKEEQKELEKSEKEEDEDDDRKSEDDKEEEERKRQEEIERQRRERRYILPDEPAIIVHPNWAAKSGKFDCSIMSLSVLLDYRLEDNKEHSFEVSLFAELFNEMLQRDFGVRIYKSLLSLPEKEDKKEKDKKSKKDERKDKKEERDDETDEPKPKRRKSGDDKDKKEDRDERKKEDKRKDDSKDDDETEEDNNQDEYDPMEAEEAEDEEDDRDEEEMTKRDDKRDINRYCKERPSKDKEKEKTQMITINRDLLMAFVYFDQSHCGYLLEKDLEEILYTLGLHLSRAQVKKLLNKVVLRESCFYRKLTDTSKDEENHEESESLQEDMLGNRLLLPTPTVKQESKDVEENVGLIVYNGAMVDVGSLLQKLEKSEKVRAEVEQKLQLLEEKTDEDEKTILNLENSNKSLSGELREVKKDLSQLQENLKISENMNLQFENQMNKTIRNLSTVMDEIHTVLKKDNVKNEDKDQKSKENGASV
On to B1, for which the binding result is “binds weakly” in assay [2], “no binding” in assay [3] and “binds” in assay [4].
